The list shows a part of the results. Shown are side measurements of this screen, not its main read-out; they come without a call. Compounds called inactive in the main read-out are mostly missing here. The note in brackets gives the kind of curve behind each potency; many fits are weak.

The source of these data is PubChem BioAssay AID445 (National Center for Advancing Translational Sciences (NCATS), 2006).

The nature of this assay: IkB Signaling. The following applies: ABC-DLBCL IkBa-CBG/CBR dual luciferase ratio (green luciferase fused to IkBa over red control in OCI-Ly3 lymphoma cells), 4 h. The procedure, abridged: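 Luminescence ratio of IκBα-fused green versus native red beetle luciferase in OCI-Ly3 cells, 4 h post-doxycycline with compound; red signal alone, scaled from basal (0%) to zero light (-100%), flagged nonspecific or cytotoxic effects.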
Where [1] appears, read: measured here: control luc red channel unless noted.
Where [2] appears, read: measured here: IkB-luc green channel.
Setting [3] is: measured here: control luc red channel.

Turning to `Cc1ccc(CCNC(=O)CN(c2ccc(C(C)C)cc2)S(=O)(=O)c2c(C)nn(C)c2C)cc1`, under setting [1], the AC50 was 10 µM [falling, partial curve].
Same read-out and setting: as for `c1ccc2c(c1)nc(Nc1ccc3c(c1)OCO3)c1nnnn12`, the figure is 10 µM [falling, partial curve]; as for `c1cc2c3c(cccc3c1)C(N1CCCCC1)=N2`, 15.8 µM [falling, partial curve]; as for `O=C(COn1nnc2ccccc21)NCC1CCCCC1`, 0.158 µM [rising, full curve, poor fit].
Regarding `CSc1nnc2n(-c3cccc(C)c3)c(=O)c3c4c(sc3n12)CCCC4`, the concentration at half-maximal activity (AC50) under setting [1] was 39.8 µM [falling, single point].
As for `COc1ccccc1N1CCN(C(=O)c2ccc(Nc3nc4ccccc4n4nnnc34)cc2)CC1`, under setting [1], the AC50 is 3.16 µM [falling, full curve].
With `CCn1c(=O)n(CC)c2cc(N3CCCC3)c(NC(=O)Nc3cc(C)cc(C)c3)cc21`, the AC50 under setting [1] is 15.8 µM [falling, single point].
`Cc1c(NC(=O)c2ccc(COc3ccc4ccccc4c3)o2)c(=O)n(-c2ccccc2)n1C`: the AC50 under setting [1] is 3.16 µM [falling, partial curve].
Turning to `O=C(Nc1ccccc1F)c1oc2ccccc2c1NC(=O)c1c(F)cccc1F`, the AC50 under setting [1] was 20 µM [falling, partial curve, poor fit].
As to `Cc1cccn2c(=O)cc(COc3cccc(NC(=O)c4cccc(Cl)c4)c3)nc12`, the AC50 under setting [1] was 5.01 µM [falling, partial curve].
Turning to `CCn1c(CN2CCCCC2)nc2cc(NC(=O)c3cccc([N+](=O)[O-])c3)ccc21`, the AC50 under setting [1] was 10 µM [falling, partial curve].
Consider `Cc1ccc(CCNC(=O)CSCc2nc(-c3ccc(C)cc3)oc2C)cc1`, for which, under setting [1], the AC50 was 20 µM [falling, partial curve].
The same measure, in the same setting: as for `Cc1ccc(CNC(=O)c2nn(C)c3c2CSc2ccc(C)cc2-3)cc1`, the figure is 10 µM [falling, partial curve].
In the case of `O=C(NCCc1ccco1)c1nn(Cc2ccccc2)c(=O)c2ccccc12`, the AC50 under setting [1] was 7.94 µM [falling, partial curve].
Still for that read-out and setting: the figure for `CCN(Cc1ccccc1)C(=O)Cn1c(=O)n(-c2cccc(C)c2)c(=O)c2c1c1cc(OC)ccc1n2C` is 0.2 µM [falling, partial curve]; for `CC(C)c1ccc(OCC(=O)NCC(c2ccc(Cl)cc2)N2CCOCC2)cc1` (centres undefined) it is 31.6 µM [falling, single point]; for `Cc1nc2c(C(=O)NCCc3ccc(Cl)cc3)cnn2c(C)c1Cc1ccc(F)cc1` it is 31.6 µM [falling, single point].
On to `COc1ccc(N2C(N)=C(C#N)C(c3cc(CN4CCOCC4)cs3)C3=C2CCCC3=O)cc1` (centres undefined), for which the AC50 under setting [1] was 20 µM [falling, partial curve].
With `CCn1c(Sc2ccc(N)cc2Cl)nc2ccccc21`, the AC50 under setting [1] is 15.8 µM [falling, partial curve].
For `CC(=O)[C@@]1(O)Cc2c(O)c3c(c(O)c2[C@H](O[C@H]2C[C@H](N)[C@H](O)[C@H](C)O2)C1)C(=O)c1ccccc1C3=O`, the AC50 is, setting by setting: under setting [2], 3.16 µM [falling, full curve]; under setting [3], 1.26 µM [falling, full curve].
Consider `Nc1nc2n[nH]nc2c(=O)[nH]1`, for which the AC50 under setting [1] was 501 nM [rising, full curve] [measured here: IkB-luc green channel].
`CC1(C)Cc2c(sc3nc(-c4cccs4)n(N)c(=O)c23)CO1`: the AC50 under setting [1] is 10 µM [falling, partial curve].
The same measure, in the same setting: the figure for `O=C(Nc1ccc2nc(SCC(=O)N3CCCc4ccccc43)sc2c1)c1ccc(Cl)cc1` is 2.51 µM [falling, partial curve].
With `Cc1ccc(-n2ncc(C(=O)NC3CCN(Cc4ccccc4)CC3)c2C2CCN(C(=O)OC(C)(C)C)CC2)cc1C`, the AC50 under setting [1] was 20 µM [falling, partial curve].
Regarding `CCC(C(=O)NCCc1cc(OC)ccc1OC)n1nc(C)c2c(C)n(-c3ccccc3)nc2c1=O` (centres undefined), the AC50 under setting [1] was 1.58 µM [falling, full curve, poor fit].
Take `CC(Sc1nc(=O)cc(N)n1CCc1ccccc1)C(=O)Nc1cccc(Cl)c1` (centres undefined): the AC50 under setting [1] is 15.8 µM [falling, partial curve].
For `COc1ccc(C(=O)Nc2nc3n(n2)C(c2ccc(Cl)cc2)C=C(c2ccccc2)N3)cc1OC` (centres undefined), under setting [1], the AC50 was 7.94 µM [falling, full curve].
For `COc1ccccc1N1CCN(S(=O)(=O)c2c(C)sc3ncn(CC(=O)Nc4ccc(C)cc4Br)c(=O)c23)CC1`, under setting [1], the AC50 is 3.98 µM [falling, single point].
For `CCN(CC)S(=O)(=O)c1ccc2c(c1)c(=O)c(C(=O)N1CCN(c3cccc(Cl)c3)CC1)cn2C`, under setting [1], the AC50 is 1.58 µM [falling, full curve].
On the same count and under the same terms, the figure for `CCc1ccc(C(=O)c2cn(CC(=O)Nc3ccc4c(c3)OCO4)c3ccc(F)cc3c2=O)cc1` is 3.16 µM [falling, partial curve]; for `Clc1ccc(-n2ncc3c(NCCN4CCOCC4)ncnc32)cc1` it is 20 µM [falling, partial curve]; for `COc1ccccc1-c1nc(-c2cccc(C)c2)no1` it is 12.6 µM [falling, partial curve].
For the compound `CS(=O)(=O)c1ccc2nc(NC(=O)C3COc4ccccc4O3)sc2c1` (centres undefined), the AC50 under setting [1] is 39.8 µM [falling, single point].
`COc1ccc(N2CCN(C(=O)c3cnn(-c4ccc(OC)cc4)c3C3CCN(C(=O)OC(C)(C)C)CC3)CC2)cc1`: the AC50 under setting [1] was 31.6 µM [falling, single point].
Still for that read-out and setting: the figure for `CSc1cccc(NS(=O)(=O)c2ccc(F)cc2)c1` is 31.6 µM [falling, single point]; for `COc1ccccc1N1CCN(c2nc(C)nc3c2oc2ccccc23)CC1` it is 12.6 µM [falling, partial curve]; for `O=C(CCN1CCc2ccccc2C1)c1ccc2c(c1)OCCO2` it is 3.16 µM [falling, full curve].
Turning to `Cc1ccc(CNC(=O)C2CCCN(c3ncnc4onc(-c5ccc(F)cc5)c34)C2)cc1` (centres undefined), under setting [1], the AC50 is 39.8 µM [falling, single point].
On the same count and under the same terms, the figure for `Cc1ccc(C2=CSC3=NCCN23)c(C)c1` is 20 µM [falling, partial curve].
Still for that read-out and setting: the figure for `O=C(CN1C(=O)CCSc2ccccc21)Nc1ccc(C(F)(F)F)cc1` is 15.8 µM [falling, single point].
Consider `Cc1ccc(Nc2cc(C)nn2-c2nc(C)cc(=O)[nH]2)cc1`, for which the AC50 is, setting by setting: under setting [2], 0.158 µM [rising, full curve]; under setting [3], 0.631 µM [falling, full curve].
As for `CCOc1ccc(NC(=O)CN2CCN(CC(=O)Nc3ccc(F)cc3F)CC2)cc1`, the AC50 under setting [1] was 2 µM [falling, full curve].
For `Cn1c(/C(C#N)=C/c2ccccc2Br)nc2ccccc21`, the half-maximal activity concentration (AC50) under setting [1] was 31.6 µM [falling, single point].
For the compound `O=C(/C=C\Nc1ccccn1)c1ccc(Cl)cc1`, the AC50 under setting [1] is 0.794 µM [falling, full curve].
Still for that read-out and setting: as for `CCc1cccc(NS(=O)(=O)c2ccc3c(c2)CC(C)N3C(=O)C2CC2)c1` (centres undefined), the figure is 12.6 µM [falling, partial curve].
Take `O=C(COC(=O)Cn1cnc2ccccc21)NCCC1=CCCCC1`: the AC50 under setting [1] was 6.31 µM [falling, single point].
Regarding `COc1ccc(Cl)cc1NC(=O)CSc1nccn1-c1ccc(Cl)cc1`, the concentration at half-maximal activity (AC50) under setting [1] was 25.1 µM [falling, single point].
On to `Cc1ccc(C)c(N2CCN(C(=O)c3cc(C)nc4c3c(C)nn4-c3ccccc3)CC2)c1`, for which the AC50 under setting [1] was 10 µM [falling, partial curve, poor fit].
Take `CCOc1ccc(OCC(=O)Nc2ccc(S(=O)(=O)Nc3cc(C)on3)cc2)cc1`: the AC50 under setting [1] was 10 µM [falling, partial curve].
Still for that read-out and setting: as for `COc1cc(CN(C(=O)COc2ccc(F)cc2)c2ccccn2)cc(OC)c1OC`, the figure is 20 µM [falling, single point]; as for `CCCc1cc(=O)n2[nH]c(NCc3c(F)cccc3Cl)nc2n1`, 1.58 µM [rising, partial curve]; as for `COc1ccc(N2CCN(S(=O)(=O)c3ccc4c(c3)C(C(C)C)C(=O)N4)CC2)cc1` (centres undefined), 15.8 µM [falling, partial curve].
For the compound `Cc1nc2cc(-c3cccc(F)c3)nn2c(C)c1CCC(=O)NCCc1ccccc1`, the AC50 under setting [1] is 3.98 µM [falling, partial curve].
Consider `Cn1c(=O)c2sccc2n2c(CCCC(=O)Nc3ccc(Oc4ccccc4)cc3)nnc12`, for which, under setting [1], the concentration at half-maximal activity (AC50) was 20 µM [falling, partial curve].
In the case of `CCOC(=O)COc1ccc(-c2nnn(CC(=O)Nc3ccccc3)n2)cc1`, the AC50 under setting [1] was 12.6 µM [falling, partial curve].
Consider `O=C1CSC(c2cn(-c3ccccc3)nc2-c2ccccc2)N1Cc1ccco1` (centres undefined), for which the AC50 under setting [1] is 15.8 µM [falling, partial curve].
Take `COc1ccc(-c2noc(CC(=O)N(C)c3cccc(C)c3)n2)cc1`: under setting [1], the AC50 was 20 µM [falling, single point].
Take `CCOC(=O)c1cnc2ccc(Br)cc2c1NCCN1CCOCC1`: under setting [1], the AC50 was 25.1 µM [falling, partial curve].
The same measure, in the same setting: the figure for `Cc1ccc(N2CC(NC(=O)c3ccccc3C(F)(F)F)CC2=O)cc1C` (centres undefined) is 2.51 µM [rising, single point].
Still for that read-out and setting: as for `COc1ccc(NC(=O)CSc2oc(-c3cccs3)nc2S(=O)(=O)c2ccccc2)c(OC)c1`, the figure is 7.94 µM [falling, full curve]; as for `O=C(Nc1ccc(C(=O)OCc2cc(=O)n3nc(C4CC4)sc3n2)cc1)c1ccccc1`, 25.1 µM [rising, partial curve].
The same measure, in the same setting: the figure for `OC1CCN(c2c3c(nc4cc(-c5cccc(F)c5)nn24)CCCC3)CC1` is 31.6 µM [falling, partial curve].
